Measurements: patent publication US20170240613A1 (REGENTS OF THE UNIVERSITY OF COLORADO A BODY CORPORATE, published 2017)
Results are given in words; binding and its absence hold for the method and conditions named. Some binding calls cover weakened binding; strength is not graded here.

Sequences of proteins named here, by UniProt entry; tags and fusion partners are left off. A change or cut given only in a name is not applied to a line headed by its entry.
UniProt Q6DKI7: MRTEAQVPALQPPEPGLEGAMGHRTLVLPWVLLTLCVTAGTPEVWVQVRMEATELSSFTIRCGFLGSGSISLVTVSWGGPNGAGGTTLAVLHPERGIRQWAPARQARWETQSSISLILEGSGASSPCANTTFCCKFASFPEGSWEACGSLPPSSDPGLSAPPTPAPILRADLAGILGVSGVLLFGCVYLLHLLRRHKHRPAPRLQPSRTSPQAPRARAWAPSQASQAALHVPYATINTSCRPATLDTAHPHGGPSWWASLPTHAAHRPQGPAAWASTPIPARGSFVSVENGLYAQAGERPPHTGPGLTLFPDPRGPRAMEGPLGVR

B1: 2H6 CD112R monoclonal antibody (mouse anti-human CD112R, clone 2H6) (antibody, V domains shown)
VH: EVQLQQSGAELVRSGASVKMSCKVNDYTFTNYNMHWLRQTPGQGLEWIGYIYPGNGDTNYNQKFKGKATLTADTSSSTAYMQIISLTSEDPAVYFCARQGIHYYYIDVWGAGTTVTVSS
VL: DIEMTQSPATLSVTPGDRVSLSCRASQSIRDYLHWYQQKSHESPRLLIKYVSQSISGIPSRFSGSGSGSEFTLSINSVEPEDVGVYYCQNGHSLPLTFGSGTKLEIKR
B2: CD112R monoclonal antibody mAb 4-4 (antibody, V domains shown)
VH: QVQLQQSGAELAKPGASVKMSCKASGYTFTSDWMHWVKQRPGQGLEWIGYINPSTGYTEYNQKFKDKATLTADKSSSTAYMQLRSLTSEDSAVYYCARGSSGSWFAYWGQGTLVTVSA
VL: DIVLTQSPASLAVSLGQRATISCRASQSVSTSSYSYMHWYQQKPGQPPKLLIKYASNLESGVPARFSGSGSGTDFTLNIHPVEEEDTATYYCQHSWEIPYTFGGGTKLEIK

Tests used:
[1] = biological target: human CD112R (form used in Example 18 not stated) (human) (UniProt Q6DKI7); test: Example 18, FIG. 14; assay not described
[2] = biological target: human CD112R (form used in Example 18 not stated) (human) (UniProt Q6DKI7); test: flow cytometry of human CD112R; axis line 'FL4-H ::2H6 0.01ug'
[3] = biological target: human CD112R (form used in Example 18 not stated) (human) (UniProt Q6DKI7); test: flow cytometry of human CD112R; panel title '4-4', but the axis line reads 'FL4-H :: 4-5 0.01ug'

Binder	binding [1]	binding [2]	binding [3]
B1	binds	binds	–
B2	binds	–	binds
